Experimental data reported in patent publication US8785452B2, “Anti-infective compounds” (priority 2008, dated 2014).
Like-named read-outs stand apart in the source and are kept apart here.

Tested on: M. tuberculosis H37Rv-GFP
Test: microbe, parasite or virus in culture
Format: cell-based
Conditions: Mycobacterium tuberculosis, Macrophage

COc1ccc(/C(C)=N\NC(=O)c2ccncc2)cc1 [IPK 000 219 29]
inhibition at 20 µM (read-out: Primary QIM % Inhibition): 107% | inhibition at 20 µM (read-out: QIM Confirm % Inhibition 20 uM): 67.6%
